In paper PMC8319428:
These are yes or no findings as the source states them, for the method shown. In cells and extracts the contact can be indirect. Some results given as binding are weak or reduced against the parent protein; the word gives no strength.

Target: EGFR-GFP (UniProt P00533)
Assay: co-IP; GFP affinity co-purification: EGFR-GFP captured on GBP (GFP-binding protein)-sepharose beads from lysates of transfected MCF7 cells (wild type or GNAI3 KO; with or without C18:0 or C18:1, 100 uM, 3 h or 24 h; with or without GNAI3 overexpression). Cells were treated with or without EGF 50 ng/mL for 5 min, then cross-linked with 0.5 mM DSP before lysis. Lysis buffer 800 mM NaCl, 1% NP-40; washes 300 mM NaCl, 0.1% NP-40. Gab1 detected by immunoblot.

- binding: binds
B1: Gab1 (growth-factor receptor binding 2 (Grb2)-associated binding protein 1) (protein, UniProt Q13480 1-694)
chain: MSGGEVVCSGWLRKSPPEKKLKRYAWKRRWFVLRSGRLTGDPDVLEYYKNDHAKKPIRIIDLNLCQQVDAGLTFNKKEFENSYIFDINTIDRIFYLVADSEEEMNKWVRCICDICGFNPTEEDPVKPPGSSLQAPADLPLAINTAPPSTQADSSSATLPPPYQLINVPPHLETLGIQEDPQDYLLLINCQSKKPEPTRTHADSAKSTSSETDCNDNVPSHKNPASSQSKHGMNGFFQQQMIYDSPPSRAPSASVDSSLYNLPRSYSHDVLPKVSPSSTEADGELYVFNTPSGTSSVETQMRHVSISYDIPPTPGNTYQIPRTFPEGTLGQTSKLDTIPDIPPPRPPKPHPAHDRSPVETCSIPRTASDTDSSYCIPTAGMSPSRSNTISTVDLNKLRKDASSQDCYDIPRAFPSDRSSSLEGFHNHFKVKNVLTVGSVSSEELDENYVPMNPNSPPRQHSSSFTEPIQEANYVPMTPGTFDFSSFGMQVPPPAHMGFRSSPKTPPRRPVPVADCEPPPVDRNLKPDRKVKPAPLEIKPLPEWEELQAPVRSPITRSFARDSSRFPMSPRPDSVHSTTSSSDSHDSEENYVPMNPNLSSEDPNLFGSNSLDGGSSPMIKPKGDKQVEYLDLDLDSGKSTPPRKQKSSGSGSSVADERVDYVVVDQQKTLALKSTREAWTDGRQSTESETPAKSVK
